Measurements reported in publication PMC6967409 (Frontiers in Chemistry, 2020).
Like-named read-outs stand apart in the source and are kept apart here.

Assays:
P. falciparum Dd2 [1] = test system: P. falciparum Dd2; parameters: method as in Coertzen et al. (2018); details: resistance index; ref Coertzen et al. (2018); cited from earlier work
[2] = test system: P. falciparum ARC08-22 (4G); experiment: T0 [3H]-hypoxanthine drug susceptibility assay, artemisinin-resistant clone (C580Y); type: cell-based, Plasmodium falciparum
P. falciparum K1 [3] = test system: P. falciparum K1; parameters: method as in Coertzen et al. (2018); details: resistance index; ref Coertzen et al. (2018); cited from earlier work
[4] = test system: Chinese hamster ovarian (CHO) cells; details: selectivity index; ref Coertzen et al. (2018); cited from earlier work
HepG2 cells [5] = experiment: HepG2 cytotoxicity bioluminescence assay (CellTiterGlo, ATP); type: cell-based, human; details: selectivity index
Experimental: Briefly, HepG2-CD81 cells were seeded into 1,536 well plates containing 50 nL of test and control compounds diluted into DMSO. […] Next, 2 μL of luciferin reagent (Promega BrightGlo) was added to each well and luciferase activity was detected using a Perkin Elmer Envision plate reader. […] In parallel, plates were processed without sporozoites for HepG2 toxicity measurements.
In continuation of the transmission blocking theme, it is important to establish activities against liver stage parasites. […] This assay uses ultra-high-throughput screening methods optimized for a 1536-well format and a HepG2 human hepatoma cell line. […] To establish selectivity of the compounds for the parasite in the liver stage of infection, cytotoxicity was determined by measuring bioluminescence from the reaction between free ATP of compound-treated, uninfected hepatocytes and a luciferase reporter system.

[6] = test system: P. falciparum PL08-009 (5C); experiment: T0 [3H]-hypoxanthine drug susceptibility assay, artemisinin-resistant clone (C580Y); type: cell-based, Plasmodium falciparum; details: for fold decrease in susceptibility of PL08-009 (5C): relative to W2
[7] = test system: P. falciparum NF54 late stage gametocytes (>90% stage IV and V); parameters: method as in Coertzen et al. (2018); details: ref Coertzen et al. (2018); cited from earlier work
P. falciparum W2 [8] = test system: P. falciparum W2; parameters: method as in Coertzen et al. (2018); details: resistance index; ref Coertzen et al. (2018); cited from earlier work
HepG2 cells [9] = experiment: Cytotoxicity, Cytoselect LDH cytotoxicity assay kit; type: cell-based, human; details: selectivity index
Experimental: (§1) Cytotoxicity (EC50) was determined against Chinese hamster ovarian (CHO) using a 3-(4,5-dimethylthiazol-2-yl)-2,5-diphenyltetrazolium bromide (MTT) assay and hepatocellular carcinoma cells (HepG2) using the Cytoselect LDH cytotoxicity assay kit (Cell Biolabs).

[10] = test system: P. falciparum NF54 late stage gametocytes (>90% stage IV and V); experiment: Gametocytocidal luciferase reporter assay, late stage, 72 h; type: cell-based, Plasmodium falciparum
Experimental: (§2) P. falciparum parasites (NF54, K1, and W2) were cultured in vitro in human erythrocytes (A^+ or O^+) under 90% N2, 5% CO2, and 5% O2 atmospheric conditions with supplemented RPMI 1640 media (Sigma Aldrich) containing Albumax II, as previously described (Verlinden et al., [2011]). This study was carried out according the guidelines set out by the Faculty of Health Sciences Ethical Committee, Ethical Clearance no. EC-120821/077. The protocol was approved by the Faculty of Health sciences ethical committee at the University of Pretoria. All subjects gave written informed consent in accordance with the Declaration of Helsinki. Parasite proliferation was monitored microscopically using Giemsa stained smears. Synchronized ring stage parasites (>95%) were obtained using a 5% D-sorbitol (Sigma Aldrich) treatment. […] Gametocyte cultures were kept stationary under 90% N2, 5% CO2, and 5% O2 atmospheric conditions at 37°C and treated with 50 mM N-acetyl-glucosamine (NAG) to eliminate residual invasion of asexual parasites.
Gametocytocidal activity was determined using the luciferase reporter line (Reader et al., [2015]) to derive dose responses with two-fold serial drug dilutions for 48 h against early stage gametocytes (day 5 post-induction population, >90% stage I–III) and 10-fold serial drug dilutions for 72 h against late stage gametocytes (day 10 post-induction population, >90% late stage IV–V) (2% gametocytemia, 2% hematocrit), at 37°C under 90% N2, 5% CO2, and 5% O2 atmospheric conditions.

P. falciparum W2 [11] = experiment: Proliferative (SYBR Green I) assay, asexual parasites, 96 h; type: cell-based, Plasmodium falciparum; details: resistance index
Experimental: as §2
(§3) Working solutions of the derivatives were prepared from a 10 mM stock solution in 100% DMSO in supplemented RPMI 1640 media containing Albumax II with a final DMSO concentration of <0.1%, previously determined as being non-toxic to intraerythrocytic asexual parasites and gametocytes. Dose responses were assayed using a two-fold serial drug dilution on in vitro >95% ring stage intraerythrocytic P. falciparum parasites at 37°C under 90% N2, 5% CO2, and 5% O2 atmospheric conditions, detecting both parasite lactate dehydrogenase (pLDH) activity as a metabolic marker following a 48 h drug exposure (1.5–2% parasitemia and 2% hematocrit; Makler et al., [1993]) and SYBR Green I fluorescence as proliferative marker following a 96 h drug exposure (1% parasitemia and 1% hematocrit). […] Data analysis was performed using GraphPad Prism 7.

P. falciparum K1 [12] = experiment: as above; type: cell-based, Plasmodium falciparum; details: resistance index
Experimental: as §2, §3

[13] = test system: Chinese hamster ovarian (CHO) cells; experiment: Cytotoxicity, MTT assay; type: cell-based; details: selectivity index
Experimental: as §1

P. falciparum Dd2 [14] = experiment: Metabolic (parasite LDH) assay, asexual ring stage parasites, 48 h; type: cell-based, Plasmodium falciparum; details: resistance index
Experimental: as §3

Structure (SMILES)	RI (IC50 Dd2/IC50 NF54), metabolic (P. falciparum Dd2 [1])	RI (IC50 for ARC08-22(4G)/IC50 for W2) [2]	RI (IC50 K1/IC50 NF54), proliferative (P. falciparum K1 [3])	SI (EC50 CHO/IC50 NF54 proliferative assay) [4]	SI (EC50 HepG2/IC50 P. berghei sporozoites) (HepG2 cells [5])	RI (IC50 for PL08-09 (5C)/IC50 for W2) [6]	Fold change preference ratio: EG to LG [7]	Fold change preference ratio: LG to EG [7]	RI (column beside W2; footnote f IC50 Dd2/IC50 NF54), proliferative (P. falciparum W2 [8])	SI (EC50 HepG2/IC50 NF54) (HepG2 cells [9])	Fold change preference ratio: EG to LG [10]	fold decrease in susceptibility of PL08-009 (5C) [6] [fold]	RI (column beside W2; footnote f IC50 Dd2/IC50 NF54), proliferative (P. falciparum W2 [11])	RI (IC50 K1/IC50 NF54), proliferative (P. falciparum K1 [12])	SI (EC50 CHO/IC50 NF54 proliferative assay) [13]	RI (IC50 Dd2/IC50 NF54), metabolic (P. falciparum Dd2 [14])
C[C@H]1[C@H](N2CCSCC2)O[C@@H]2O[C@@]3(C)CC[C@H]4[C@H](C)CC[C@@H]1[C@@]24OO3 [Artemiside 7, artemiside]	1.4	1.1	1.47	>45,166	>308	0.1	0.09	10.9	1.58	–	–	–	–	–	–	–
C[C@H]1[C@H](N2CCS(=O)(=O)CC2)O[C@@H]2O[C@@]3(C)CC[C@H]4[C@H](C)CC[C@@H]1[C@@]24OO3 [Artemisone 8, artemisone]	0.9	1.0	0.85	>83,000	>1767	0.2	21.9	0.05	1.36	–	–	–	–	–	–	–
C[C@H]1[C@H](N2CCN(C(=O)c3ccc(C(F)(F)F)cc3)CC2)O[C@@H]2O[C@@]3(C)CC[C@H]4[C@H](C)CC[C@@H]1[C@@]24OO3 [Compound 27]	–	1.9	–	–	41.8	45.2	–	–	–	39.85	0.06	> 20	0.9	1.0	44,235	26.9
C[C@H]1[C@H](N2CCN(C(=O)c3ccc(F)cc3)CC2)O[C@@H]2O[C@@]3(C)CC[C@H]4[C@H](C)CC[C@@H]1[C@@]24OO3 [Compound 28]	–	1.6	–	–	73.0	42.2	–	–	–	67.8	0.03	> 20	1.0	0.75	67,821	1.4
